Assay results from paper PMC11862924, “Phenylpyrazoles as Inhibitors of the m^6A RNA-Binding Protein YTHDF2” (JACS Au, 2025).

System: YTHDF2 RNA binding in K562 cells
Assay: eCLIP of YTHDF2-bound RNAs
Format: cell-based, human

O=C(O)c1ccc(-n2cc(C(=O)c3c(O)ccc4ccccc34)cn2)cc1 [CK-75]
change in the global RBP-binding pattern in eCLIP (in words): did not lead to significant changes | windows differentially enriched in treated cells (Z-score >3 or <−3) (20 μM, 4 h): 23 windows | share of DMSO eCLIP windows significantly enriched in the treated eCLIP (20 μM, 4 h, 5606/6618): 84.71% | DMSO eCLIP windows (of 6618) also significantly enriched in the treated eCLIP (20 μM, 4 h, log2 fold change >1, p < 0.05): 5606 windows
